Test results: patent US20070134261A1, “Effectors of innate immunity” (priority 2001, published 2007)
Part of at least one peptide drawing is inferred or uncertain, most often the ends. No end group written: not given here.

System: human CD14+ monocytes
Experiment: Human 21K DNA microarrays of CD14+ monocytes from PBMC stimulated with SEQ ID NO: 7 and/or LPS (Tables 69-72)
Type: cell-based

KSRIVPAIPVSLL [SEQ ID NO: 7]
Fold Change by LPS + SEQ 7 (gene HSPB1): 1.6 fold | Fold Change by LPS + SEQ 7 (gene HTLF): 1.5 fold | Fold Change SEQ ID NO: 7 (gene HV2G_HUMAN): 1.5 | Fold Change by LPS + SEQ 7 (gene HYAL4, human monocytes): 3.6 fold | Fold Change by LPS + SEQ 7 (gene IBRDC2): 2.3 fold | Fold Change SEQ ID NO: 7 (gene ICAM3): 2.2 | Fold Change by LPS + SEQ 7 (gene ICAM3): 1.7 fold | Fold Change by LPS + SEQ 7 (gene ICK): 1.6 fold | Fold Change by LPS + SEQ 7 (gene ID2, human monocytes): 2.4 fold | Fold Change by LPS + SEQ 7 (gene IDH3G, human monocytes): 17.5 fold | Fold Change by LPS + SEQ 7 (gene IDI1): −1.6 fold | Fold Change by LPS + SEQ 7 (gene IDUA, human monocytes): 28.7 fold | Fold Change by LPS + SEQ 7 (gene IER3): 1.9 fold | Fold Change by LPS + SEQ 7 (gene IFNA2, human monocytes): 5.3 fold | Fold Change SEQ ID NO: 7 (gene IGHG3): 1.8 | Fold Change by LPS + SEQ 7 (gene IGHG3): 2.1 fold | Fold Change by LPS + SEQ 7 (gene IL1A, human monocytes): 3.7 fold | Fold Change by LPS + SEQ 7 (gene IL1F9, human monocytes): 2.5 fold | Fold Change by LPS + SEQ 7 (gene IL6, human monocytes): 2.3 fold | Fold Change by LPS + SEQ 7 (gene IL6R): −1.5 fold | Fold Change by LPS + SEQ 7 (gene IL7R): 2.1 fold | Fold Change by LPS + SEQ 7 (gene IL10RB): −1.7 fold | Fold Change SEQ ID NO: 7 (gene IL12A): −1.5 | Fold Change by LPS + SEQ 7 (gene IL12B): 1.7 fold | Fold Change by LPS + SEQ 7 (gene IL13RA1): −2.0 fold | Fold Change by LPS + SEQ 7 (gene IL17B, human monocytes): 12.2 fold | Fold Change by LPS + SEQ 7 (gene IL17C, human monocytes): 17.4 fold | Fold Change by LPS + SEQ 7 (gene IL32, NK4): 1.6 fold | Fold Change SEQ ID NO: 7 (gene INPP4A): 1.7 | Fold Change by LPS + SEQ 7 (gene INPP5D): −1.5 fold | Fold Change SEQ ID NO: 7 (gene INSIG1): 2.4 | Fold Change by LPS + SEQ 7 (gene INSIG1, human monocytes): 2.6 fold | Fold Change by LPS + SEQ 7 (gene INSR): −1.6 fold | Fold Change by LPS + SEQ 7 (gene IRAK3): 2.0 fold | Fold Change SEQ ID NO: 7 (gene ITGA5): −1.7 | Fold Change by LPS + SEQ 7 (gene ITGA8, human monocytes): 34.0 fold | Fold Change SEQ ID NO: 7 (gene ITGA9): −1.6 | Fold Change by LPS + SEQ 7 (gene ITGA10): −1.7 fold | Fold Change by LPS + SEQ 7 (gene ITGBL1): −2.3 fold | Fold Change by LPS + SEQ 7 (gene ITM2B): −2.2 fold | Fold Change SEQ ID NO: 7 (gene ITPA): 1.6 | Fold Change by LPS + SEQ 7 (gene ITPKA): 1.8 fold | Fold Change by LPS + SEQ 7 (gene ITPKB, human monocytes): 2.7 fold | Fold Change by LPS + SEQ 7 (gene JAK2): −1.8 fold | Fold Change by LPS + SEQ 7 (gene KCNA6, human monocytes): 5.2 fold | Fold Change by LPS + SEQ 7 (gene KCNA10): 1.6 fold | Fold Change by LPS + SEQ 7 (gene KCNH7, human monocytes): 80.6 fold | Fold Change by LPS + SEQ 7 (gene KCNJ2): 1.5 fold | Fold Change by LPS + SEQ 7 (gene KCNK6, human monocytes): 58.8 fold | Fold Change by LPS + SEQ 7 (gene KCNMB4): −1.6 fold | Fold Change SEQ ID NO: 7 (gene KCNN3): 1.5 | Fold Change by LPS + SEQ 7 (gene KIAA0084): 2.0 fold | Fold Change by LPS + SEQ 7 (gene KIAA0258): −1.7 fold | Fold Change by LPS + SEQ 7 (gene KIAA0355): 1.5 fold | Fold Change by LPS + SEQ 7 (gene KIAA0391): 1.7 fold | Fold Change SEQ ID NO: 7 (gene KIAA1024): −1.5 | Fold Change by LPS + SEQ 7 (gene KIAA1244): −2.0 fold | Fold Change SEQ ID NO: 7 (gene KIAA1404): 2.2 | Fold Change by LPS + SEQ 7 (gene KIAA1404, human monocytes): 2.5 fold | Fold Change by LPS + SEQ 7 (gene KIAA1533): 2.0 fold | Fold Change SEQ ID NO: 7 (gene KIAA2010): 1.5 | Fold Change by LPS + SEQ 7 (gene KIF1A, human monocytes): 4.0 fold | Fold Change SEQ ID NO: 7 (gene KIF13A): 1.6 | Fold Change by LPS + SEQ 7 (gene KIF13A): 1.9 fold | Fold Change SEQ ID NO: 7 (gene KLHL21): −2.2 | Fold Change by LPS + SEQ 7 (gene KLK1): 2.0 fold | Fold Change by LPS + SEQ 7 (gene KLRB1, human monocytes): 3.5 fold | Fold Change by LPS + SEQ 7 (gene KNS2): 1.6 fold | Fold Change by LPS + SEQ 7 (gene KPNA4): 1.7 fold | Fold Change SEQ ID NO: 7 (gene KPNB1): 3.3 | Fold Change by LPS + SEQ 7 (gene KPNB1, human monocytes): 3.5 fold | Fold Change by LPS + SEQ 7 (gene KRT7): −2.1 fold | Fold Change by LPS + SEQ 7 (gene KRTHA4, human monocytes): 11.4 fold | Fold Change by LPS + SEQ 7 (gene LAMA2): 1.9 fold | Fold Change by LPS + SEQ 7 (gene LARS): −2.5 fold | Fold Change by LPS + SEQ 7 (gene LATS2): 1.5 fold | Fold Change SEQ ID NO: 7 (gene LECT2): 2.0 | Fold Change by LPS + SEQ 7 (gene LECT2): 1.9 fold | Fold Change by LPS + SEQ 7 (gene LILRA1): 1.6 fold | Fold Change by LPS + SEQ 7 (gene LILRB1, human monocytes): 2.3 fold | Fold Change by LPS + SEQ 7 (gene LILRB2): 1.7 fold | Fold Change SEQ ID NO: 7 (gene LMNA): 1.8 | Fold Change by LPS + SEQ 7 (gene LNX, human monocytes): 9.5 fold | Fold Change by LPS + SEQ 7 (gene LPAL2): 1.5 fold | Fold Change SEQ ID NO: 7 (gene LRP11): 1.6 | Fold Change by LPS + SEQ 7 (gene LRRN1, human monocytes): 3.8 fold | Fold Change by LPS + SEQ 7 (gene LY6G5C): 2.0 fold | Fold Change SEQ ID NO: 7 (gene LY6G6E): 2.8 | Fold Change by LPS + SEQ 7 (gene LY96): −1.5 fold | Fold Change by LPS + SEQ 7 (gene MAB21L1): 2.3 fold
